Measurements published in the supplement of paper PMC9433722.
Counter-ions that a name gives are not always drawn. The list shows a part of the results. Single values are uncertain, as repeats are few or missing.

Legend:
Saos-2 = experiment: cell viability (CCK-8) relative to DMSO control (% of control); higher = less cytotoxic; settings: 10 µM; 48 h
U2OS = experiment: as above; settings: 10 µM; 48 h

Compound	cell viability (Saos-2)	cell viability (U2OS)
C[C@]12C=CC(=O)C=C1CC[C@@H]1[C@@H]2[C@@H](O)C[C@@]2(C)[C@H]1CC[C@]2(O)C(=O)CO [Prednisolone]	67.1	105
CC1(C)O[C@@H]2[C@@H](CO[C@@]3(COS(N)(=O)=O)OC(C)(C)O[C@@H]23)O1 [Topiramate]	104	89.6
CCC1=C(C)CN(C(=O)NCCc2ccc(S(=O)(=O)NC(=O)N[C@H]3CC[C@H](C)CC3)cc2)C1=O [Glimepiride]	69.4	106
C#C[C@]1(O)CC[C@H]2[C@@H]3CCc4cc(OC)ccc4[C@H]3CC[C@@]21C [Mestranol]	100	99.2
CN(C)CCC(c1ccc(Cl)cc1)c1ccccn1 (stereo not given) [Chlorpheniramine Maleate]	69.2	97
C=CC[N+]1([C@H]2C[C@H]3[C@@H]4CC[C@H]5C[C@H](O)[C@@H](N6CCOCC6)C[C@]5(C)[C@H]4CC[C@]3(C)[C@H]2OC(C)=O)CCCC1 [Rocuronium Bromide]	62.5	121
CC(C)(C)NC[C@H](O)COc1nsnc1N1CCOCC1 [Timolol maleate salt]	64.5	105
CN(C)CCOC(c1ccccc1)c1ccccc1.Cn1c(=O)c2[nH]c(Cl)nc2n(C)c1=O [Dimenhydrinate]	112	107
CC(=O)NC[C@H]1CN(c2ccc(N3CCOCC3)c(F)c2)C(=O)O1 [Linezolid]	70.4	110
NCCCC(N)(C(=O)O)C(F)F (stereo not given) [Eflornithine·HCl]	110	91
COCCCOc1ccnc(C[S+]([O-])c2nc3ccccc3[nH]2)c1C (stereo not given) [Rabeprazole . Sodium]	109	102
CN(CCOc1ccc(CC2SC(=O)NC2=O)cc1)c1ccccn1 (stereo not given) [Rosiglitazone]	56.9	112
OC[C@@H](O)[C@@H](O)[C@H](O)[C@H](O)CO [Mannitol]	108	92.3
CCCN(CCC)CCc1cccc2c1CC(=O)N2 [Ropinirole·HCl]	106	103
NCCCCCC(=O)O [6-Aminocaproic acid]	113	84.7
CCOC(=O)[C@H](CCc1ccccc1)N[C@H]1CCc2ccccc2N(CC(=O)O)C1=O [Benazepril·HCl]	109	102
Nc1nc(/C(=C/CC(=O)O)C(=O)N[C@@H]2C(=O)N3C(C(=O)O)=CCS[C@H]23)cs1 [Ceftibuten]	99.3	46.3
Nc1ncnc2c1ncn2[C@@H]1O[C@H](CO)[C@@H](O)[C@H]1O [Adenosine]	119	92.8
Cn1c(=O)c2[nH]cnc2n(C)c1=O [Oxtriphylline]	109	118
CCCCC[C@H](O)/C=C/[C@H]1[C@H](O)CC(=O)[C@@H]1C/C=C\CCCC(=O)O [Prostaglandin E2]	55.3	115
CC(=O)Nc1c(I)c(NC(C)=O)c(I)c(C(=O)O)c1I [Diatrizoate Meglumine]	109	114
CN(Cc1ccc(C(C)(C)C)cc1)Cc1cccc2ccccc12 [Butenafine·HCl]	58.3	113
CCOC(=O)[C@H](CCc1ccccc1)N[C@@H](C)C(=O)N1CCC[C@H]1C(=O)O [Enalapril]	71.5	106
CN(C)CCC=C1c2ccccc2COc2ccccc21 [Doxepin · Hydrochloride]	113	93.2
Cc1ccsc1C(=CCCN1CCC[C@@H](C(=O)O)C1)c1sccc1C [Tiagabine·HCl]	109	96.6
CC(=O)[C@]1(O)Cc2c(O)c3c(c(O)c2[C@@H](O[C@H]2C[C@H](N)[C@H](O)[C@H](C)O2)C1)C(=O)c1ccccc1C3=O [Idarubicin . Hydrochloride]	19.2	23.6
C[C@](N)(Cc1ccc(O)c(O)c1)C(=O)O [Alpha-methyl-L-dopa sesquihydrate]	72.3	94.4
CC(C)[C@H]1CC[C@H](C(=O)N[C@H](Cc2ccccc2)C(=O)O)CC1 [Nateglinide]	62.1	107
CN(C)[C@@H]1C(O)=C(C(N)=O)C(=O)[C@@]2(O)C(O)=C3C(=O)c4c(O)ccc(Cl)c4[C@@H](O)[C@H]3C[C@@H]12 [Demeclocycline·HCl]	108	97.3
Nc1ncn([C@@H]2O[C@H](CO)[C@@H](O)[C@H]2O)c(=O)n1 [5-Azacytidine]	124	101

2 consecutive compounds out of the list so far, quoted:
Compound	cell viability (Saos-2)	cell viability (U2OS)
Nc1nc(/C(=C/CC(=O)O)C(=O)N[C@@H]2C(=O)N3C(C(=O)O)=CCS[C@H]23)cs1 [Ceftibuten]	99.3	46.3
Nc1ncnc2c1ncn2[C@@H]1O[C@H](CO)[C@@H](O)[C@H]1O [Adenosine]	119	92.8
